# Reference: PubChem BioAssay AID504834 (National Center for Advancing Translational Sciences (NCATS), 2011)
# The whole screen tested about 320,000 compounds, of which about 22,000 (6.9%) were called active. The shares of active, inactive and inconclusive entries below differ from those in the screen. Calls come from the whole dose curve; as a rule, active = well fitted inhibition curve with a large enough effect; inconclusive = small, poorly fitted or top-dose-only effect, or another doubt; inactive = no such curve, though single readings can be large or run the other way. A potency beside an inconclusive call is a rough fit, not a confirmed value.
# Experiment: Primary qHTS for delayed death inhibitors of the malarial parasite plastid, 96 hour incubation
# Conditions: P. falciparum luciferase reporter growth; series mostly up to 28.7 µM; activity change, negative = inhibition: at the top concentration
# How it was run: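 Two parasite generations (96 h, 37 C, 5% CO2) of compound exposure in infected erythrocytes (0.05% parasitemia, 2% hematocrit). Luciferase-reporter P. falciparum; decreased luminescence indicates inhibited growth, aimed at apicoplast-acting delayed death.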
# % is set by controls: 0 for no effect and ±100 for the full control effect; potency is the fitted concentration of half-maximal effect.
SMILES,"activity change, negative = inhibition",Potency
Cc1oc(-c2ccccc2)nc1C(=O)N1CCN(c2ccc(F)cc2)CC1,inactive: 33.7%,–
CC(C)(C)c1ccc(C(=O)NCCC(=O)N2CCCC2)cc1,inactive: 150%,–
CCC(CC)C(=O)N1CCN(Cc2nc3ccccc3c(=O)[nH]2)CC1,–,"inconclusive: 4.15 µM [inhibitor, single point]"
CN(C)c1nc(Oc2ccc(=O)[nH]n2)nc(N2CCOCC2)n1,inactive: 1.65%,–
CCOc1cccc(OCCCCn2ccnc2)c1,inactive: -9.08%,–
COc1ccc(/C=N/N=C2/NC(=O)C(CC(=O)O)S2)cc1OCc1ccc(Cl)cc1Cl (stereo not drawn),inactive: -20.8%,–
CN1CCN(Cc2cn(C)nc2-c2ccccc2F)CC1c1ccccc1 (stereo not drawn),–,"inconclusive: 8.28 µM [inhibitor, single point]"
Cc1ccc(-n2cccc2/C=C2/C(=N)N3C(=NC2=O)SN=C3S(C)(=O)=O)cc1Cl,–,"inconclusive: 13.1 µM [inhibitor, single point]"
O=C(CCn1c(=O)oc2cc(Cl)ccc21)Nc1ccc(O)cc1,–,"inconclusive: 10.4 µM [inhibitor, partial curve]"
O=C(O)CN1CCN(Cc2ccc(Cl)cc2)C1=O,inactive: 0%,–
COc1ccccc1CNS(=O)(=O)c1ccc(Cl)s1,inactive: -0.859%,–
COc1ccccc1N1CCN(c2nc(N)c(C#N)c(CC#N)c2C#N)CC1,–,"inconclusive: 11.7 µM [inhibitor, single point]"
Cc1ccc(NS(=O)(=O)c2ccc(C(=O)NCc3cccnc3)cc2)cc1,–,"inconclusive: 18.5 µM [inhibitor, single point]"
COc1ccc(CNc2nc3c(c(=O)[nH]c(=O)n3C)n2Cc2ccccc2C)cc1,–,"inconclusive: 18.5 µM [inhibitor, single point]"
COc1ccc(C(CNc2nc(-c3cccnc3)nc3ccccc23)N(C)C)cc1 (stereo not drawn),–,"inconclusive: 7.38 µM [inhibitor, partial curve]"
Cc1ccc(C(=O)N2CCN(S(=O)(=O)c3ccccc3)CC2)s1,–,"inconclusive: 1.31 µM [inhibitor, partial curve, poor fit]"
Cc1ccc(NC(=O)CN2C(=O)NC3(CCCCCCC3)C2=O)cc1C,inactive: -24.1%,–
CCc1ccc(C(=O)NCc2ccc(Cl)cc2Cl)cc1,inactive: 3.35%,–
CCC(Sc1nc2cc3c(cc2c(=O)n1Cc1ccco1)OCO3)C(=O)Nc1ccccc1OC (stereo not drawn),–,"inconclusive: 18.5 µM [inhibitor, single point]"
CCn1c(COc2ccc(=O)n(-c3ccccc3)n2)nnc1SCc1ccccc1C,–,"inconclusive: 7.38 µM [inhibitor, partial curve, poor fit]"
CC1(C)Cc2c(cnn2-c2ccccc2)-c2c1c1ccccc1n2CC(O)CCl (stereo not drawn),–,"inconclusive: 9.28 µM [inhibitor, partial curve, poor fit]"
Cc1cccc(OCc2nnc(SC(C)C(=O)O)n2-c2ccccc2)c1 (stereo not drawn),inactive: 15.7%,–
O=C(NCc1ccccn1)c1ccc(Cl)c(S(=O)(=O)N2CCCCCC2)c1,inactive: 9.96%,–

# Three entries out of the list, arranged by count of non-hydrogen atoms, high to low.
SMILES,"activity change, negative = inhibition",Potency
CC1(C)Cc2c(cnn2-c2ccccc2)-c2c1c1ccccc1n2CC(O)CCl (stereo not drawn),–,"inconclusive: 9.28 µM [inhibitor, partial curve, poor fit]"
Cc1cccc(OCc2nnc(SC(C)C(=O)O)n2-c2ccccc2)c1 (stereo not drawn),inactive: 15.7%,–
O=C(O)CN1CCN(Cc2ccc(Cl)cc2)C1=O,inactive: 0%,–

# (listing goes on)

SMILES,"activity change, negative = inhibition",Potency
Cc1cc(C)n(CCNS(=O)(=O)c2ccc(Cl)cc2)n1,–,"inconclusive: 11.7 µM [inhibitor, single point]"
CC(=O)Nc1ccc(NC(=O)c2ccccc2S(=O)(=O)c2ccc([N+](=O)[O-])cc2)cc1,inactive: 10.3% [at 5.75 µM],–
COc1cccc(CNC(=O)CC(NC(C)=O)c2ccccc2)c1 (stereo not drawn),–,"inconclusive: 18.5 µM [inhibitor, single point]"
CCN(CC(=O)NC1CC1)S(=O)(=O)c1ccc(C)cc1,inactive: -26.2%,–
NC(=O)c1ccc(NC(=O)CN2CCN(C(=O)c3ccco3)CC2)cc1,–,active: 2.33 µM
O=C1C(Cl)=C(NC2CCCCC2)C(=O)N1c1ccc(Cl)cc1,–,active: 9.28 µM
CC1(C)N=C(N)N=C(N)N1c1ccc(OCCCOc2ccccc2)c(Cl)c1,–,active: 0.0233 µM
CCNC(=S)N=Nc1c(O)n(Cc2ccc(Cl)cc2)c2ccccc12,–,"inconclusive: 18.5 µM [inhibitor, single point]"
CC(C)C(NC(=O)C1CCCCC1)C(=O)NCCc1ccccc1 (stereo not drawn),–,"inconclusive: 9.28 µM [inhibitor, partial curve, poor fit]"
Cc1ccc2oc(C(=O)N(C)Cc3ccc(C)o3)c(C)c2c1,–,"inconclusive: 20.8 µM [inhibitor, partial curve, poor fit]"
O=C(Nc1nc2ccccc2[nH]1)c1ccc(F)c(S(=O)(=O)N2CCOCC2)c1,inactive: 92.1%,–
CC(C)(C)NC(=O)NC(=O)COC(=O)C1CCN(S(=O)(=O)c2cccs2)CC1,–,"inconclusive: 18.5 µM [inhibitor, partial curve, poor fit]"
O=C(Nc1ccnn1C1CCN(C/C=C/c2ccccc2)CC1)c1ccccc1,–,"inconclusive: 20.8 µM [inhibitor, partial curve, poor fit]"
COc1ccc(C2CC(O)(c3ccccc3)Oc3cc(OC)cc(OC)c32)cc1 (stereo not drawn),–,"inconclusive: 18.5 µM [inhibitor, single point]"
O=S(=O)(Nc1cccc(S(=O)(=O)N2CCCC2)c1)c1ccc(Cl)s1,inactive: -2.15%,–
CC(=O)c1ccccc1NC(=O)COC(=O)CN1C(=O)C2CCCCC2C1=O (stereo not drawn),inactive: -21.6%,–
CC(C)n1c(NCc2ccc(Cl)cc2)nc2ccccc21,inactive: 1.66%,–
COc1ccc2cc3cc(C(=O)N4CCCCCC4)oc3nc2c1,–,"inconclusive: 20.8 µM [inhibitor, single point]"
COc1cccc(C(=O)Nc2ccc(NC(=O)c3ccco3)c(Cl)c2)c1,–,"inconclusive: 18.5 µM [inhibitor, single point]"
Cc1ccc(NCC(O)C(O)C(O)CO)c(N=Nc2ccccc2)c1C (stereo not drawn),–,"inconclusive: 18.5 µM [inhibitor, single point]"
CC(C)OCCCNC(=O)c1cn(C)c2ccc(S(=O)(=O)N(C)C3CCCCC3)cc2c1=O,–,"inconclusive: 11.7 µM [inhibitor, single point]"
O=C(NNC(=O)c1cc(-c2ccco2)nc2ccccc12)c1ccccc1,–,"inconclusive: 4.65 µM [inhibitor, partial curve, poor fit]"
CN(CC(=O)Nc1cccc(F)c1)C(=O)c1cccc(S(=O)(=O)N2CC3(C)CC2CC(C)(C)C3)c1 (stereo not drawn),–,"inconclusive: 10.4 µM [inhibitor, single point]"

SMILES,"activity change, negative = inhibition",Potency
CC(C)n1cnnc1SCC(=O)Nc1cccc(S(=O)(=O)N(C)c2ccccc2)c1,–,"inconclusive: 9.28 µM [inhibitor, single point]"
CCCCOc1ccc(-n2nc(C)cc2C)nn1,–,"inconclusive: 2.08 µM [inhibitor, partial curve, poor fit]"
COc1ccc(C(=O)NCC(=O)NCC(=O)OCc2ccc(Cl)cc2)cc1,inactive: -20.9%,–
CCCCc1cc(=O)oc2c3c(cc(OCC(=O)NCCCO)c12)OC(C)(C)CC3,–,"inconclusive: 11.7 µM [inhibitor, single point]"
O=C(Nc1ccc(N2CCCC2)cc1)C(c1ccccc1)c1ccccc1,–,active: 4.65 µM
COc1ccc(CCn2c(=N)c(C(=O)N3CCN(C)CC3)cc3c(=O)n4ccccc4nc32)cc1,–,"inconclusive: 18.5 µM [inhibitor, single point]"
CS(=O)(=O)N(CC(=O)O)c1ccc(C23CC4CC(CC(C4)C2)C3)cc1,–,"inconclusive: 18.5 µM [inhibitor, single point]"
COc1ccc(-c2nnc(SCc3ccccn3)n2C)cc1,–,"inconclusive: 9.28 µM [inhibitor, partial curve, poor fit]"
O=C(N/N=C/c1ccccc1)C1CCCN1C(=O)c1cc([N+](=O)[O-])cc([N+](=O)[O-])c1 (stereo not drawn),–,"inconclusive: 11.7 µM [inhibitor, single point]"
Cc1cc(C)c(NC(=O)C(=O)NCc2ccco2)c(C)c1,–,"inconclusive: 0.131 µM [inhibitor, full curve, poor fit]"
CSc1nnc(-c2sccc2-n2cccc2)o1,–,"inconclusive: 18.5 µM [inhibitor, single point]"
COc1ccc(S(=O)(=O)N2CCN(c3ncccn3)CC2)cc1OC,–,"inconclusive: 13.1 µM [inhibitor, single point]"
CC(C)(C)NC(=O)c1cccc(NC(=O)c2ccco2)c1,inactive: -3.98%,–
COc1ccc2nc(/N=C/c3c(C)[nH]n(-c4ccc(C)cc4C)c3=O)sc2c1,–,"inconclusive: 13.1 µM [inhibitor, partial curve, poor fit]"
COc1ccc(C(=O)NCC(=O)OCc2ccc(Br)cc2)cc1,–,"inconclusive: 11.7 µM [inhibitor, single point]"
Cc1ccc(-c2nnc(SCC(=O)N3c4ccccc4NC(=O)C3(C)C)n2N)cc1,–,"inconclusive: 18.5 µM [inhibitor, single point]"
O=C(NCCC1CCCCN1S(=O)(=O)c1ccc(Cl)cc1)C(=O)NCc1cccnc1 (stereo not drawn),–,"inconclusive: 9.28 µM [inhibitor, partial curve, poor fit]"
C=CCOC(=O)C1=C[C@H](c2csc3ccccc23)[C@@H](CCCO)[C@H](OCC)O1,–,"inconclusive: 0.208 µM [inhibitor, full curve, poor fit]"
CCC(Oc1ccccc1C)C(=O)N1CCCN(C)CC1 (stereo not drawn),inactive: 36.1%,–
COc1cc(-c2nnc(SCc3ccccc3Cl)o2)cc(OC)c1OC,inactive: -7.3%,–
CCn1c(SCC(=O)Nc2ccccc2C)nc2nc3c(cc2c1=O)COC(C)(C)C3,–,"inconclusive: 5.86 µM [inhibitor, partial curve, poor fit]"
CCOc1ccc(NC(=O)CCCCn2c(=O)[nH]c3ccsc3c2=O)cc1,–,"inconclusive: 13.1 µM [inhibitor, single point]"
